The source of these data is patent US20100297119A1.

No constants are given. Whether binding was seen depends on the method and setting. Some entries that bind do so weakly or less than the wild type.

For this test, the target named is TNALP ectodomain monomers (papain cleavage product of sTNALP-FcD10) (human) (UniProt P05186). Description: SEC-HPLC in non denaturing conditions after papain digestion; self-association.

B1: TNALP ectodomain monomers (papain cleavage product of sTNALP-FcD10) (enzyme)
chain: LVPEKEKDPKYWRDQAQETLKYALELQKLNTNVAKNVIMFLGDGMGVSTVTAARILKGQLHHNPGEETRLEMDKFPFVALSKTYNTNAQVPDSAGTATAYLCGVKANEGTVGVSAATERSRCNTTQGNEVTSILRWAKDAGKSVGIVTTTRVNHATPSAAYAHSADRDWYSDNEMPPEALSQGCKDIAYQLMHNIRDIDVIMGGGRKYMYPKNKTDVEYESDEKARGTRLDGLDLVDTWKSFKPRYKHSHFIWNRTELLTLDPHNVDYLLGLFEPGDMQYELNRNNVTDPSLSEMVVVAIQILRKNPKGFFLLVEGGRIDHGHHEGKAKQALHEAVEMDRAIGQAGSLTSSEDTLTVVTADHSHVFTFGGYTPRGNSIFGLAPMLSDTDKKPFTAILYGNGPGYKVVGGERENVSMVDYAHNNYQAQSAVPLRHETHGGEDVAVFSKGPMAHLLHGVHEQNYVPHVMAYAACIGANLGHCAPASS
As for B1, the binding entry is on record as “binds”.
